Some entries share one result that the patent states for a list of compounds.
Target: T1, Recombinant human IKKβ (residues 5-756) (Homo sapiens, UniProt O14920)
T1 construct: Recombinant human IKKβ (residues 5-756); GST (C); made in house
T1 sequence (O14920 5-756): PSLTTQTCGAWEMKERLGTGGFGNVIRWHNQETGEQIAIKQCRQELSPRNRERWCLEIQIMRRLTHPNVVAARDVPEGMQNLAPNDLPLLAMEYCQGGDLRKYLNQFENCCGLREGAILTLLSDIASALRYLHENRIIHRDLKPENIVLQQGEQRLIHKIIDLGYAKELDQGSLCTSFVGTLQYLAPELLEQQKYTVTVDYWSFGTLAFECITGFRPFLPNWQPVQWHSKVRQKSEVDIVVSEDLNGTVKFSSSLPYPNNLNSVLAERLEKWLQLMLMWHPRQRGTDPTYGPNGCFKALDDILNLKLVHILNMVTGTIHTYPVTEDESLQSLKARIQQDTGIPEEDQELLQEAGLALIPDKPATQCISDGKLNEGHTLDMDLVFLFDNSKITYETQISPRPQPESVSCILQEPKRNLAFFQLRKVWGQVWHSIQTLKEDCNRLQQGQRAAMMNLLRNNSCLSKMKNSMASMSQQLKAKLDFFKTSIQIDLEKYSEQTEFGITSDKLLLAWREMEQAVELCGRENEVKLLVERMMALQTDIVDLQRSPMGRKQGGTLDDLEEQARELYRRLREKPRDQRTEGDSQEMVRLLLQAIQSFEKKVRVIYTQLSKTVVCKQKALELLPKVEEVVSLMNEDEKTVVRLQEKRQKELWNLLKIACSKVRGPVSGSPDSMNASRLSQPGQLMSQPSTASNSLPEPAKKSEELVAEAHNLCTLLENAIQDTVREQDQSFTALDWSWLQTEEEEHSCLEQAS
Assay: IKK2 assay (TR-FRET)
Type: biochemical

Compound | pIC50 potency against IKK2
NCCCNS(=O)(=O)c1ccc(-c2ccnc3[nH]c(CC(N)=O)cc23)cc1.O=C(O)C(F)(F)F.O=C(O)C(F)(F)F [Example 2, 2-[4-(4-{[(3-Aminopropyl)amino]sulfonyl}phenyl)-1H-pyrrolo[2,3-b]pyridin-2-yl]acetamide bis(trifluoroacetate)] | ≥ 5.0
Cc1cc2c(-c3ccc(NS(C)(=O)=O)cc3)ccnc2[nH]1 [Example 101, N-[4-(2-Methyl-1H-pyrrolo[2,3-b]pyridin-4-yl)phenyl]methanesulfonamide] | ≥ 5.0
COCCCNC(=O)Cc1cc2c(-c3ccc(NS(C)(=O)=O)cc3)ccnc2[nH]1.O=C(O)C(F)(F)F [Example 23, N-[3-(methyloxy)propyl]-2-(4-{4-[(methylsulfonyl)amino]phenyl}-1H-pyrrolo[2,3-b]pyridin-2-yl)acetamide trifluoroacetate] | ≥ 5.0
Cc1cc2c(-c3ccc(S(=O)(=O)NC4CCS(=O)(=O)CC4)cc3)ccnc2[nH]1.O=C(O)C(F)(F)F [Example 63, N-(1,1-dioxidotetrahydro-2H-thiopyran-4-yl)-4-(2-methyl-1H-pyrrolo[2,3-b]pyridin-4-yl)benzenesulfonamide trifluoroacetate] | ≥ 5.0
CC(O)c1cc2c(-c3ccc(S(=O)(=O)NC4CCS(=O)(=O)CC4)cc3)ccnc2[nH]1.O=C(O)C(F)(F)F (stereo not shown) [Example 91, N-(1,1-Dioxidotetrahydro-2H-thiopyran-4-yl)-4-[2-(1-hydroxyethyl)-1H-pyrrolo[2,3-b]pyridin-4-yl]benzenesulfonamide trifluoroacetate] | ≥ 5.0
O=C(O)C(F)(F)F.O=S(=O)(NCCO)c1ccc(-c2ccnc3[nH]c(C4CCC4)cc23)cc1 [Example 114, 4-(2-cyclobutyl-1H-pyrrolo[2,3-b]pyridin-4-yl)-N-(2-hydroxyethyl)benzenesulfon-amide trifluoroacetate] | ≥ 5.0
CC(C)(C)c1cc2c(-c3ccc(S(=O)(=O)NCCN)cc3)ccnc2[nH]1.O=C(O)C(F)(F)F [Example 147, N-(2-Aminoethyl)-4-[2-(1,1-dimethylethyl)-1H-pyrrolo[2,3-b]pyridin-4-yl]benzenesulfonamide trifluoroacetate] | ≥ 5.0
Cc1cncc(OCc2cc3c(-c4ccc(S(=O)(=O)N5CCCC5)cc4)ccnc3[nH]2)c1.O=C(O)C(F)(F)F [Example 184, 2-{[(5-Methyl-3-pyridinyl)oxy]methyl}-4-[4-(1-pyrrolidinylsulfonyl)phenyl]-1H-pyrrolo[2,3-b]pyridine trifluoroacetate] | ≥ 5.0
O=C(Cc1cc2c(-c3ccc(S(=O)(=O)NCCO)cc3)ccnc2[nH]1)N1CCCC1.O=C(O)C(F)(F)F [Example 95, N-(2-hydroxyethyl)-4-{2-[2-oxo-2-(1-pyrrolidinyl)ethyl]-1H-pyrrolo[2,3-b]pyridin-4-yl}benzenesulfonamide trifluoroacetate] | ≥ 5.0
Cc1cc2c(-c3ccc(S(=O)(=O)NCC4(N)CCCC4)cc3)ccnc2[nH]1.O=C(O)C(F)(F)F [Example 84, N-[(1-aminocyclopentyl)methyl]-4-(2-methyl-1H-pyrrolo[2,3-b]pyridin-4-yl)benzenesulfonamide trifluoroacetate] | ≥ 5.0
O=C(O)C(F)(F)F.O=S(=O)(N[C@H]1CCCC[C@@H]1O)c1ccc(-c2ccnc3[nH]c(C(F)F)cc23)cc1 [Example 164, 4-[2-(difluoromethyl)-1H-pyrrolo[2,3-b]pyridin-4-yl]-N-[(1S,2S)-2-hydroxycyclohexyl]benzene-sulfonamide trifluoroacetate] | ≥ 5.0
Cc1cc2c(-c3ccc(S(=O)(=O)NCCCN)cc3)ccnc2[nH]1.O=C(O)C(F)(F)F [Example 89, N-(3-aminopropyl)-4-(2-methyl-1H-pyrrolo[2,3-b]pyridin-4-yl)benzenesulfonamide trifluoroacetate] | ≥ 5.0
CS(=O)(=O)Nc1ccc(-c2ccnc3[nH]c(CC(=O)N4CCCC4)cc23)cc1.O=C(O)C(F)(F)F [Example 17, N-(4-{2-[2-oxo-2-(1-pyrrolidinyl)ethyl]-1H-pyrrolo[2,3-b]pyridin-4-yl}phenyl)methanesulfonamide trifluoroacetate] | ≥ 5.0

Next, values leading:

pIC50 potency against IKK2 | Compound
≥ 5.0 | NC1(CNS(=O)(=O)c2ccc(-c3ccnc4[nH]c(C(F)F)cc34)cc2)CCCC1.O=CO [Example 182, formic acid -N-[(1-aminocyclopentyl)methyl]-4-[2-(difluoromethyl)-1H-pyrrolo[2,3-b]pyridin-4-yl]benzenesulfonamide (1:1)]
≥ 5.0 | CCc1cc2c(-c3ccc(S(=O)(=O)NCCNC(=O)OC(C)(C)C)cc3)ccnc2[nH]1 [Example 186, 1,1-Dimethylethyl[2-({[4-(2-ethyl-1H-pyrrolo[2,3-b]pyridin-4-yl)phenyl]sulfonyl}-amino)ethyl]carbamate]
≥ 5.0 | O=S(=O)(NC1CCC(O)CC1)c1ccc(-c2ccnc3[nH]c(Cn4ccnn4)cc23)cc1 (stereo not shown) [Example 131, N-(4-hydroxycyclohexyl)-4-[2-(1H-1,2,3-triazol-1-ylmethyl)-1H-pyrrolo[2,3-b]pyridin-4-yl]benzenesulfonamide]
≥ 5.0 | Cc1cc2c(-c3ccc(S(=O)(=O)NC4CCC(O)C4)cc3)ccnc2[nH]1 (stereo not shown) [Example 247, N-(3-hydroxycyclopentyl)-4-(2-methyl-1H-pyrrolo[2,3-b]pyridin-4-yl)benzenesulfonamide]
≥ 5.0 | O=CO.O=S(=O)(NC1CCNCC1)c1ccc(-c2ccnc3[nH]c(C(F)F)cc23)cc1 [Example 181, formic acid-4-[2-(difluoromethyl)-1H-pyrrolo[2,3-b]pyridin-4-yl]-N-4-piperidinylbenzenesulfonamide(1:1)]
≥ 5.0 | Cc1cc2c(-c3ccc(S(=O)(=O)NCC4(O)CCCCC4)cc3)ccnc2[nH]1 [Example 251, N-[(1-hydroxycyclohexyl)methyl]-4-(2-methyl-1H-pyrrolo[2,3-b]pyridin-4-yl)benzenesulfonamide]
≥ 5.0 | Cc1cc2c(-c3ccc(S(=O)(=O)N[C@@H](CO)CC(C)C)cc3)ccnc2[nH]1 [Example 240, N-[(1R)-1-(hydroxymethyl)-3-methylbutyl]-4-(2-methyl-1H-pyrrolo[2,3-b]pyridin-4-yl)benzenesulfonamide]
≥ 5.0 | O=S(=O)(N[C@@H]1CCC[C@H]1O)c1ccc(-c2ccnc3[nH]c(C(F)(F)F)cc23)cc1 [Example 227, N-[(1R,2R)-2-hydroxycyclopentyl]-4-[2-(trifluoromethyl)-1H-pyrrolo[2,3-b]pyridin-4-yl]benzenesulfonamide]
≥ 5.0 | CN(C)Cc1cc2c(-c3ccc(S(=O)(=O)NC4CCS(=O)(=O)CC4)cc3)ccnc2[nH]1 [Example 255, 4-{2-[(dimethylamino)methyl]-1H-pyrrolo[2,3-b]pyridin-4-yl}-N-(1,1-dioxidotetrahydro-2H-thiopyran-4-yl)benzenesulfonamide]
≥ 5.0 | C[C@H](O)CNS(=O)(=O)c1ccc(-c2ccnc3[nH]c(C(F)(F)F)cc23)cc1 [Example 201, N-[(2S)-2-hydroxypropyl]-4-[2-(trifluoromethyl)-1H-pyrrolo[2,3-b]pyridin-4-yl]benzenesulfonamide]
≥ 5.0 | NC1(CNS(=O)(=O)c2ccc(-c3ccnc4[nH]c(Cn5ccnn5)cc34)cc2)CCCC1 [Example 152, N-[(1-aminocyclopentyl)methyl]-4-[2-(1H-1,2,3-triazol-1-ylmethyl)-1H-pyrrolo[2,3-b]pyridin-4-yl]benzenesulfonamide]
≥ 5.0 | CCCCNS(=O)(=O)c1ccc(-c2ccnc3[nH]c(Cn4ccnn4)cc23)cc1 [Example 134, N-butyl-4-[2-(1H-1,2,3-triazol-1-ylmethyl)-1H-pyrrolo[2,3-b]pyridin-4-yl]benzenesulfonamide]
≥ 5.0 | CC(C)(C)OC(=O)N1CCN(Cc2cc3c(-c4ccc(S(=O)(=O)NCCO)cc4)ccnc3[nH]2)CC1 [Example 257, 1,1-dimethylethyl 4-{[4-(4-{[(2-hydroxyethyl)amino]sul-fonyl}phenyl)-1H-pyrrolo[2,3-b]pyridin-2-yl]methyl}-1-piperazinecarboxylate]
≥ 5.0 | O=S(=O)(N[C@@H]1CCCC[C@H]1O)c1ccc(-c2ccnc3[nH]c(C(F)(F)F)cc23)cc1 [Example 228, N-[(1R,2R)-2-hydroxycyclohexyl]-4-[2-(trifluoromethyl)-1H-pyrrolo[2,3-b]pyridin-4-yl]benzenesulfonamide]
≥ 5.0 | O=S(=O)(c1ccc(-c2ccnc3[nH]c(Cn4nccn4)cc23)cc1)N1CCCC1 [Example 76, 4-[4-(1-Pyrrolidinylsulfonyl)phenyl]-2-(2H-1,2,3-triazol-2-ylmethyl)-1H-pyrrolo[2,3-b]pyridine]
